Source: patent US20180237756
Where a chain is given by its changes, count along the chain named. For some assays here: Weaker means in comparison with the reference protein, sequence or condition of that experiment. Tags and fusion partners may be left off the protein sequences shown. For some assays here: For at least one entry, the source does not settle the construct or the ends of the probe. For some assays here: Negatives hold for the conditions tested.

What was measured:
[1] = biological target: T1, TYK (TgoT E664K) (Thermococcus gorgonarius) (UniProt P56689); assay: EMSA; conditions: K0 strand is RNA; E664K second gate mutation increases affinity vs E664 parent; Kd fit, individual Kd not given; mutant construct (TYK/TGK) not specified; 1x Thermopol, 1 mM EDTA; purified recombinant protein; label: 5'FITC on K0, 5'biotin on TempK4; DNA:RNA hybrid; variant of K0 DNA primer / TempK4
T1 sequence (limits assumed): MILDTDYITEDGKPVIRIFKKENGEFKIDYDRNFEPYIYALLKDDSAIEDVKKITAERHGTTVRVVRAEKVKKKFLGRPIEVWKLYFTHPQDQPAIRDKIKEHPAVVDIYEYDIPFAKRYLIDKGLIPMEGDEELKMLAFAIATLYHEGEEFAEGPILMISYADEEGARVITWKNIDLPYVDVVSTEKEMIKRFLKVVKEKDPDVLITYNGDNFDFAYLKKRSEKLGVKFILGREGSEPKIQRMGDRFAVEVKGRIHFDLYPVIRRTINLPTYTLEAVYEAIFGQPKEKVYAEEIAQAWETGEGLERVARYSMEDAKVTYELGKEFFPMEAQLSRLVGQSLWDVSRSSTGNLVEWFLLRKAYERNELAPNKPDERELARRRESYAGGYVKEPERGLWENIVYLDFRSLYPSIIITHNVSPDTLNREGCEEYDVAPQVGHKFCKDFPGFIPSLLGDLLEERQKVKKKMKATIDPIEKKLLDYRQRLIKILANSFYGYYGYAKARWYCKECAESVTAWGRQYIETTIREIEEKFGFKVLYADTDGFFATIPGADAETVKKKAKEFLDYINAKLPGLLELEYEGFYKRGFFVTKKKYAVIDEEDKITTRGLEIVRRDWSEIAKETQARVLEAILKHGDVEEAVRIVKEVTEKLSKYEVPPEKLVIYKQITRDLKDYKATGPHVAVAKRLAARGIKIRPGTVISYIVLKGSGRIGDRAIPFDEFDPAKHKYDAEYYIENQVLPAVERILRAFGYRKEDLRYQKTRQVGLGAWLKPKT

[2] = biological target: T2, TgoT DNA polymerase (V93Q D141A E143A A485L) (Thermococcus gorgonarius) (UniProt P56689); assay: EMSA; conditions: reference polymerase, 3- to 10-fold lower affinity than E664K mutant, purified recombinant protein, label: 5'FITC on K0, 5'biotin on TempK4
T2 sequence (limits assumed): T1 sequence (limits assumed) with K664E

[3] = biological target: T3, TN (TgoT Y409N) (Thermococcus gorgonarius) (UniProt P56689); assay: activity assay; conditions: Y409N only marginally improves RNA polymerase activity; template taken from Methods; protein in a lysate after overexpression
T3 sequence (limits assumed): T1 sequence (limits assumed) with Y409N, K664E

[4] = biological target: T4, TNK (TgoT Y409N E664K) (Thermococcus gorgonarius) (UniProt P56689); assay: activity assay; conditions: RNA polymerase activity significantly better than TNQ; template taken from Methods; protein in a lysate after overexpression
T4 sequence (limits assumed): T1 sequence (limits assumed) with Y409N

[5] = biological target: T2, TgoT DNA polymerase (V93Q D141A E143A A485L) (Thermococcus gorgonarius); assay: activity assay; conditions: template taken from Methods, purified recombinant protein
[6] = biological target: T5, D4 polymerase (Thermococcus gorgonarius) (UniProt P56689); assay: activity assay; conditions: FD strand is RNA; RNA synthesis from RNA primer; template taken from Methods; protein in a lysate after overexpression; DNA:RNA hybrid; variant of FD DNA primer / TempN
T5 sequence (limits assumed): T1 sequence (limits assumed) with P657T, E658Q, K659H, Y663H, K664Q, D669A, K671N, T676I

GCACGGCAGCACGTG / ACTGCGATGACTGTACTCGTCTAGTAGCACTGCACGTGCTGCCGTGC [K0 RNA primer / TempK4]
binding result [1]: binds
binding result ([2]; K0 strand is RNA, DNA:RNA hybrid, variant of K0 DNA primer / TempK4): binds more weakly

CCCCTTATTAGCGTTTGCCA / CTCACGATGCTGGACCAGATAAGCACTTAGCCACGTAGTGCTGTTCGGTAATCGATCTGGCAAACGCTAATAAGGGG [FD DNA primer / TempN]
activity on this sequence [3]: less active
activity on this sequence [4]: active
activity on this sequence ([5]; RNA synthesis stalls): less active

CCCCTTATTAGCGTTTGCCA / CTCACGATGCTGGACCAGATAAGCACTTAGCCACGTAGTGCTGTTCGGTAATCGATCTGGCAAACGCTAATAAGGGG [FD RNA primer / TempN]
activity on this sequence (NTP incorporations) [6]: > 20
activity on this sequence ([5]; FD strand is RNA, no RNA synthesis from RNA primer, DNA:RNA hybrid, variant of FD DNA primer / TempN): not active

GCACGGCAGCACGTG / ACTGCGATGACTGTACTCGTCTAGTAGCACTGCACGTGCTGCCGTGC [K0 DNA primer / TempK4]
binding result [2]: binds more weakly
